These are yes or no findings as the source states them, for the method shown. Binding seen in cells or lysates may run through a third protein. Some results given as binding are weak or reduced against the parent protein; the word gives no strength.
How the values were obtained:
[1] = biological target: ADP-ribosylation factor-like protein 13B (ARL13B) (mouse) (UniProt Q640N2); assay: co-IP; HEK293T cells transfected for 48 hours, RIPA lysis buffer; lysate incubated with protein A + G agarose beads and antibodies (anti-ARL13B or anti-5-HT6) overnight, washed three times with PBS, western blot; both directions
[2] = biological target: Serotonin 6 receptor (5-HT6) (mouse) (UniProt Q9R1C8); assay: as above

Protein sequences, listed by entry. Tags and fused reporters are not part of them.
UniProt Q640N2: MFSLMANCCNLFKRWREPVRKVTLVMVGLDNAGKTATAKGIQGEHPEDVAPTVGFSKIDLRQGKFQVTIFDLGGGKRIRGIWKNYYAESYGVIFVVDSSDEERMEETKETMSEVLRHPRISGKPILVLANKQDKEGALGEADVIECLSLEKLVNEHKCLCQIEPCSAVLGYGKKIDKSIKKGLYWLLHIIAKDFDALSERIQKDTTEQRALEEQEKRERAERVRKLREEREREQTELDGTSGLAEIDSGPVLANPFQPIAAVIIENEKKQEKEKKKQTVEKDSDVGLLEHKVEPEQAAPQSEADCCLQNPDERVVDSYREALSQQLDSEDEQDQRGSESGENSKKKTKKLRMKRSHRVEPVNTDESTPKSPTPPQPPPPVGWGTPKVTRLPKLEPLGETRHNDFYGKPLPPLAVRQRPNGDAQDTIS
UniProt Q9R1C8: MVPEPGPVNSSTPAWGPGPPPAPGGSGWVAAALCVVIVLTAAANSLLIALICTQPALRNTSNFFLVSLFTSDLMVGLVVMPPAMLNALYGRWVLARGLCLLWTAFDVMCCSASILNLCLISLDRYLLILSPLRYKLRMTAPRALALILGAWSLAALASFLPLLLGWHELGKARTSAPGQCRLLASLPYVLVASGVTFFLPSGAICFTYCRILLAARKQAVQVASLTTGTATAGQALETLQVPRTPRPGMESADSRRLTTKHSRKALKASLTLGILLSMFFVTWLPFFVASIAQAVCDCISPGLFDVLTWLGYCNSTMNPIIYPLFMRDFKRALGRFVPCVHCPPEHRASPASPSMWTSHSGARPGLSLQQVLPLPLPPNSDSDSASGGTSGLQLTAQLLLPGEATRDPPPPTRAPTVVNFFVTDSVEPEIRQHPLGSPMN

Substance: Serotonin 6 receptor (5-HT6) (from UniProt Q9R1C8 1-440)
- binding [1]: binds

Substance: ADP-ribosylation factor-like protein 13B (ARL13B) (from UniProt Q640N2 1-427)
- binding [2]: binds

Reference: article PMC5607612
